According to publication PMC13170167, “Magnetosome organelles are organized through interactions between McaA and McaB that alter the dynamics of the bacterial actin-like protein MamK” (mBio, 2026):

Legend:
Experiment in all cases: co-IP; GFP-Trap agarose beads on AMB-1 lysates (NP-40 lysis), 1 h at 4°C, washes in 10 mM Tris-HCl, 150 mM NaCl, pH 7.4; elutions probed by Western blot (anti-GFP, anti-Halotag, anti-Flag); strains ΔmcaAB, WT, ΔmcaA, ΔmamKΔmcaA, ΔmcaBΔmamK, ΔMAIΔMIS, ΔmamKΔmamK-like, Δmms6
[1] = target: McaA-GFP (Magnetospirillum magneticum AMB-1)
[2] = target: McaAΔ530-GFP (Magnetospirillum magneticum AMB-1)
[3] = target: McaB-GFP (Magnetospirillum magneticum AMB-1)

B1: MamK-Flag (protein, UniProt Q2W8Q6 1-347)
chain: MSEGEGQAKNRLFLGIDLGTSHTAVMSSRGKKFLLKSVVGYPKDVIGLKLLGRPYVVGDEAFEMRSYLDIRYPLQDGVLSEISDRDIEVARHLLTHVVKSAEPGPNDEICAVIGVPARASAANKALLLKMAQEVVHTALVVSEPFMVGYGLDKLINTIIVDIGAGTTDICALKGTVPGPEDQVTLTKAGNYVDERLQNAILERHPELQMNVNVACAVKEQFSFVGTPTEVASFEFRAAGKPVRADVTEPVKIACEALMPDIIESIETLLRSFQPEYQATVLQNIVFAGGGSRIRGLAAYVKEKLRPFGDANVTCVKDPTFDGCRGALRLAEELPPQYWRQLGDVSGS
Question: Which binding [1] does the source give for B1 here?
Answer: Its binding is “binds”.

Question: And the binding [2]?
Answer: The binding was “binds”.

Question: What about the binding [3] of the same binder?
Answer: The binding was “binds”.

B2: Mms6-Halo (protein, UniProt Q2W8R5 1-133)
chain: MGEMEREGAAAKAGAAKTGAAKTGTVAKTGIAAKTGVATAVAAPAAPANVAAAQGAGTKVALGAGKAAAGAKVVGGTIWTGKGLGLGLGLGLGAWGPIILGVVGAGAVYAYMKSRDIESAQSDEEVELRDALA
Question: With B2 as the binder, how does the binding [3] read?
Answer: Its binding is “no binding”.

These are yes or no findings as the source states them, for the method shown. Binding seen in cells or lysates may run through a third protein. Binding can be weak; no strength is given. Sequences can lack the tags named with a protein.
